No constants are given. Whether binding was seen depends on the method and setting. Binding seen in cells or lysates may run through a third protein. Here binding means that the protein was enriched with, or labelled near, the bait; the list need not be complete. For some of these results: A no says only that the protein was not detected with the bait.
T1: CheA (Halobacterium salinarum R1 (DSM 671)) (UniProt B0R4J9)
T1 sequence: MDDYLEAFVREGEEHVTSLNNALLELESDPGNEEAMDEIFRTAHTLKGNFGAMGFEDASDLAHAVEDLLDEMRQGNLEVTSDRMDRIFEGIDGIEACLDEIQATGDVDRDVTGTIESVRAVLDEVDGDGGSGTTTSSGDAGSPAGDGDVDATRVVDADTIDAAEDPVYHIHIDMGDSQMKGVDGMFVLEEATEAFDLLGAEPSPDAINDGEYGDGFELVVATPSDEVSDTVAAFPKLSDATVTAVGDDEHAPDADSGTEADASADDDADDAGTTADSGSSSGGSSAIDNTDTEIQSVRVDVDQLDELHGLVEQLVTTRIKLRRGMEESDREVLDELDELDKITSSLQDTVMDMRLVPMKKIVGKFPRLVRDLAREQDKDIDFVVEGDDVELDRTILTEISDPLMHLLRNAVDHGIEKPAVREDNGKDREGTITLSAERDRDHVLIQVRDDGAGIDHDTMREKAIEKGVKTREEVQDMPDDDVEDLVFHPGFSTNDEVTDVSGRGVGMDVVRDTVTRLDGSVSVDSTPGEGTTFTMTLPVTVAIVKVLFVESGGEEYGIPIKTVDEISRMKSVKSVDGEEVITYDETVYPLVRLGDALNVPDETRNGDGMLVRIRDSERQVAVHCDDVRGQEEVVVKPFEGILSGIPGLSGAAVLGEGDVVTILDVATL

T2: CheY (Halobacterium salinarum R1 (DSM 671)) (UniProt B0R4K1)
T2 sequence: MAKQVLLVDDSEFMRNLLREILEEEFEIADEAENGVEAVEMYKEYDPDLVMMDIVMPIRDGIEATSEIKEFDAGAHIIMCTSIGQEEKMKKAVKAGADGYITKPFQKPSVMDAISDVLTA

T3: CheW1 (Halobacterium salinarum R1 (DSM 671)) (UniProt Q9HQW5)
T3 sequence: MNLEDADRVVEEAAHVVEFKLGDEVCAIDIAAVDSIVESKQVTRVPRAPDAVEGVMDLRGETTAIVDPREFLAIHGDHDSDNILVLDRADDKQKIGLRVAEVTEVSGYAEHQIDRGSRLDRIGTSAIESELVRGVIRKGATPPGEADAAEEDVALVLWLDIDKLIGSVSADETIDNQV

T4: CheW2 (Halobacterium salinarum R1 (DSM 671)) (UniProt Q9HQY8)
T4 sequence: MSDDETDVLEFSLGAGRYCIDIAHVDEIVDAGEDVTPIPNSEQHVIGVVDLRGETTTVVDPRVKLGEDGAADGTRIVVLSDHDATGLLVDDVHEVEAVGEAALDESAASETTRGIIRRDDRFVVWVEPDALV


Tests used:
[1] = molecular target: T1, CheA (Halobacterium salinarum R1 (DSM 671)); assay: affinity purification with mass spectrometry; one-step and two-step bait fishing taken together (final data set; both methods applied to all baits); the place does not tell which of the two gave the result
[2] = molecular target: T2, CheY (Halobacterium salinarum R1 (DSM 671)); assay: as above
[3] = molecular target: T3, CheW1 (Halobacterium salinarum R1 (DSM 671)); assay: as above
[4] = molecular target: T4, CheW2 (Halobacterium salinarum R1 (DSM 671)); assay: affinity purification with mass spectrometry; comparative two-step bait fishing: CheW1 on one cellulose column with light (12C) lysate, CheW2 on a second column with heavy (13C) lysate, the second CheW as control instead of plain CBD; only the target purified
[5] = molecular target: T4, CheW2 (Halobacterium salinarum R1 (DSM 671)); assay: affinity purification with mass spectrometry; two-step bait fishing: bait-CBD bound to a cellulose column and stringently washed (CFE + 1% NP40 + 20% ethylene glycol), then incubated with lysate of wild type cells (12C6-leucine); plain CBD column with 13C6-leucine lysate as control; SILAC, association score > 7 counts as interaction; only the target purified
[6] = molecular target: CheD (Halobacterium salinarum R1 (DSM 671)); assay: affinity purification with mass spectrometry; one-step and two-step bait fishing taken together (final data set; both methods applied to all baits); the place does not tell which of the two gave the result
[7] = molecular target: OE4643R (Halobacterium salinarum R1 (DSM 671)); assay: as above
[8] = molecular target: T1, CheA (Halobacterium salinarum R1 (DSM 671)); assay: affinity purification with mass spectrometry; one-step bait fishing: lysates of the bait-CBD strain (13C6-leucine) and of the bait-control strain without CBD (12C6-leucine) mixed, one cellulose column, CFE buffer (3 M KCl, 1 M NaCl, 400 mM NH4Cl, 40 mM MgCl2, 10 mM Tris/HCl pH 7.5), washes with 0.5% NP40, room temperature; SILAC, association score > 7 counts as interaction
[9] = molecular target: T3, CheW1 (Halobacterium salinarum R1 (DSM 671)); assay: affinity purification with mass spectrometry; comparative two-step bait fishing: CheW1 on one cellulose column with light (12C) lysate, CheW2 on a second column with heavy (13C) lysate, the second CheW as control instead of plain CBD; only the target purified

Row | Molecule | binding [1] | binding [2] | binding [3] | binding [4] | binding [5] | binding [6] | binding [7] | binding [8] | binding [9]
1 | Htr15 (receptor) | no binding | binds | binds | binds | binds |  |  |  | 
2 | CosT (receptor, UniProt B0R6A7 1-810) MSEPTADAGDNSPSSTDTAPLDRVKAIALLPLRSYLVKFAVALLVILVIIAAGGFWVQADATATLEANTEQQLEQEAVSDATEIGDWLERNEQSVLIASNNPRLGFNTTAADKQAYVTQLVAAELDADRIADVHVADPTVGGASDARIVASTDEDARGTRVSADTHPWVDRTRSIGRDTVVSTNPYRTAGGQRVVSSMSVAADLTHVLVVEYTAGDLSDQFGAGIDGTFTQVVRPTSDATAVLFSDAGTDAVGQPYIPDRSQSEIPALDSATEQGQFTNTPTKDSVLDREYVAAYTTVPGKNWVVVKHAPSESAFALSNQIRTGILGFILVALVGVVLVGGTIGRNTAAAVQSLSAAAAEIEAGNYDVDVASSRRDEIGQLFASIGSMRDALVTQIDEAEAAREQATEAQQDAEAERERAEDARERAEDAKADAEALAAELEAQAERYSDVMAACADGDLTRRMPADDTDNEAMAAIAASFNEMLAQWEHTIIDIQEFADAVATASEEAEVGAADAERASGQVSESVQEIAGAADEQRNMLDTVSGEMTDLSAAIEEVAASADSVAEHSHQTAEIARDGEQTAEDAIERSLTVQEAIDATVQNVEALDDQMAEISEIVDLISDIAEQTNMLALNANIEAARADKSGDGFAVVADEVKDLAEETQESAGDIERRITEVQSQTTATVAEARAAEESMDAGIDAVEEVVDAFTAVSDHADETDTGVQEISDTTDDQAASTEEAVSMTEEVADLSDSTAGEAQSVSAAAEEQAASMSEISDSVESLSGQAEQLKALLSEFEVDADRDVTPTQTD |  | binds | binds | binds | binds | no binding | no binding | binds | binds
3 | Htr6 (receptor, UniProt B0R461 1-789) MSDGITGALRNAASVVAPDAIRRRFGAKFAVAFIVVLVVIAGAGVFAFQSTETTVEHQTTRQLAESNQLEADAIGAWMEQQRTHARSVSQDEALRDDRRAAPYILLKDQLLPADVVSMHLVNETRGTVVASTELAIEGRSLAELDAPWTTAAVPEGPGNDSAVWATEQSYRSPVLNDEPVMAFASSVPKREGAHLVVVTRIQPQVDRLSDANSTRRTTILNTGDEPVLDSNSRFDAGALTDSIAAVRNDTTAATTTVSNGRVYALSATPHTDWVTVTSVDTGEAFAVRDTVGQTVTVLVVLAVISLAIVGIALGRHTVTPLKRLRNRAQDIESGTFDVDLSTRRIDEVGRLYGSFDDMRVSLQDRIQEAEAAVEEANAAKAEAEELRTDAEDAQAEAERAKATAEAASERLQERAADYSEVMQAVADGDLTERLDEDADEEAMRAVATEFNAMLDGLEATIAQVAGFADEVADETLQVATGAEEIETTSQTVSERIQEIADGAIQQHDDLERAAGEMDELSASIQEVAASSATVAETAADAVERGEAGRDAAESAIDDMAEIESLSADAVDQILALQERMSDIGDIIEFITDIAEQTNMLALNANIEAARADKDGDGFAVVANEVKDLAEETKQAAADIESEIQAVQAETDETVADIRATSEHIDDGVSTVERAAAAIEDTVDAIEDANHGIQEISDATEDQADATQSVVRRVDDVADISQHVTEDAEQVSAAAEEQSASVAEIARSADDLRDRADALATTVNQFETRADADEPDADTTVDASADDTGD |  | binds | binds | binds | binds | no binding | no binding | binds | binds

Now from value to molecule:

Row | binding [1] | binding [2] | binding [3] | binding [4] | binding [5] | binding [6] | binding [7] | binding [8] | binding [9] | Molecule
4 |  | binds | binds | binds | binds | no binding | no binding | binds | binds | HtrVIII (receptor, UniProt B0R5T0 1-643) MGESARGGGSAETTGGLAAAVKTYLEYTPTGESIPAAAWRRRHRNVRVFVLAHIPLLLALGLYEGTESAVTGATIPPTPGILIAAELGIVGALVGLASIPSVSRRGRTALASTAVLASSVVLVQFSGGFIEAHFHFFVGMAVIAVYEDWLPFALGLVYVVFTHGVFGMINAERVYNHTAAINNPWVWGGIHGAFVLLLAGALMANWYSTERSREASQKRLEEARQKAQQVEDLEARQAEIEAEKAEAKRLKADAEEAREAAEAQQREVAALNERLEATANTYGAAMARAADGDLSVRLDPDVENDAMAAIAASFNEMLDETETTIREIQAVASDVAAASEDADAGVVEIEDASGQVSETVQEIAAGADEQREKLETVSGEMTDLSAAIEEVAASADSVAERSHETAAVAGDGEQTAEQAIADSRTVQSAVESTVQNVEALDDQLAEISEIVDLISDVAEQTNMLALNANIEAARADKSGDGFAVVADEVKDLAEETRASAGDIEALVADIDAQMQATVTEARTADESVQDAISAVDAVVDAFGTVAENAEETDTGVQEISTTTDDQAASTEEAVSMIAEVSDISTATAADAQQASTAAEQQTTAAATISENTAALREQADRLQGLVSTFDVHDESASTAARSE
5 |  | binds | binds | binds | binds | no binding | no binding | binds | binds | HtrII (receptor, UniProt B0R6B1 1-764) MGSGLVARIRGSYGTKLTLALVVVVVLSVGVGTFVYQQTTTQLETDVRADLTGSADARADHLDAWLSNARGQTQLASRHPVLASGNDTAITRYLEGLAASDERPDGVVAAHVYNTSTTTIEASSADAFTGVNPREQGAPFATDPPSFATTSDVVVAAPFTVPAADFPVLSVLSPIPGTTDKALIYMVNVNTLTDDFGQNVAGSTTTVVSADGTYVSHPDQDRVLTGHDGPSRLLNQSRTQPAYIDANGTVTAAAPVDGAPWSVLVRAPHDRAFALGDFVASSLVGLVLITIVSLSLIGVTVGSTTVTALRQFSRRADEMAAGDLDTDIDTSRNDEFGTLAESFRSMRDSLSESLTDAERATARAEDAREDAEQQRADAEAAREDAEAARKDAQETARALESAAADYEEALTAVADGDLTRRVDASRDHDAMARIGHALNDMLDDIETSVAAATAFSDHVSDAAQRVEADAGDAIDAGTDVSTAVDEISDGATEQTDRLHEVAGEVDDLSASAEEVAETVASLADTAGQAASAVDDGRQATEDAVETMDDVADDAEAAADAMDALDSEMADIGEIVDVIADIADQTNMLALNASIEAARTGADGDGFAVVADEVKTLAEESRDAAEDIESRLLALQGQVSDVADEMRATSDTVSDGRATVGDAATALDDVVSFVADTDTAAGEIRAATDRQAHAASRVASAVDEVAGISQETAAQATAVADSAATQTDTLSSVDDAAADLADRAAALDDLLAEFDAHDDTEPEDY

Source: article PMC3579733
